Test results taken from paper PMC5430665.
These are yes or no findings as the source states them, for the method shown. Binding seen in cells or lysates may run through a third protein. Some results given as binding are weak or reduced against the parent protein; the word gives no strength. For some of these results: Where a sequence is shown, tags or fusion partners need not be part of it. Values belong to the molecule of their own block, whether it stands above or below them.

The chains behind the UniProt entries cited, without tags or fusion partners.
UniProt P06730: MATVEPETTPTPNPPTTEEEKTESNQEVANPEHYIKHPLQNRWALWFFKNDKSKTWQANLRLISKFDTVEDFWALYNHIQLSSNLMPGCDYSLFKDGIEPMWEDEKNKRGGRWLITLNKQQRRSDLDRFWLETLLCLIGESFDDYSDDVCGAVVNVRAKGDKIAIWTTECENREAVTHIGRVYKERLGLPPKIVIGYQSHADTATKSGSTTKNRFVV
UniProt O75821: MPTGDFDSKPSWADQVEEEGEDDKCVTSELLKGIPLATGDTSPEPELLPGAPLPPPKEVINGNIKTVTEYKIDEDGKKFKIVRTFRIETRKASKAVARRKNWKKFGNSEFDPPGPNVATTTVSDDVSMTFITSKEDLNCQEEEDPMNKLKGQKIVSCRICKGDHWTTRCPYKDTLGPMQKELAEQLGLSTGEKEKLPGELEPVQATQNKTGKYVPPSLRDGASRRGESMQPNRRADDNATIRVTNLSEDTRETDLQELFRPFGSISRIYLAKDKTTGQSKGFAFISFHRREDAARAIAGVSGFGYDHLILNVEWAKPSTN
UniProt Q8JZQ9: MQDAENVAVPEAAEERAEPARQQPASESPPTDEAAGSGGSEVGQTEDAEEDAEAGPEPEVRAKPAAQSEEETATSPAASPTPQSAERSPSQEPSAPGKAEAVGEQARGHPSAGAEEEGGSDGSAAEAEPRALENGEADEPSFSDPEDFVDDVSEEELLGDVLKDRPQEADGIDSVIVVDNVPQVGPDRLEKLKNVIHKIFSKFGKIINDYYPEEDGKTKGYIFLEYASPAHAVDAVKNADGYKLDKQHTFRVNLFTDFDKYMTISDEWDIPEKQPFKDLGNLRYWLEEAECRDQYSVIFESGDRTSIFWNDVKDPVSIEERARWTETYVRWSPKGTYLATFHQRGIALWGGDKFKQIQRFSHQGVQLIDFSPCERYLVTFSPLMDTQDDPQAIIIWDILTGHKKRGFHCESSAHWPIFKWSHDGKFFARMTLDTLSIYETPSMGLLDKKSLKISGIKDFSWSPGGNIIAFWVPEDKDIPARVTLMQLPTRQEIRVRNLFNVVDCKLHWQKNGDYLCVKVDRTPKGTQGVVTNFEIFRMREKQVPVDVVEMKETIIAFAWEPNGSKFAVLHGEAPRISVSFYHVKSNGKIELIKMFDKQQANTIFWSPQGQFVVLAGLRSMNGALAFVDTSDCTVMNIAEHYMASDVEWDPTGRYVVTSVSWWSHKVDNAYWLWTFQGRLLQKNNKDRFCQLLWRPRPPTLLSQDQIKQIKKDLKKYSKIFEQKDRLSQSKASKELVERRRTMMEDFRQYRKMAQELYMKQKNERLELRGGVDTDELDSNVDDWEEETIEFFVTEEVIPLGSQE
UniProt P55884: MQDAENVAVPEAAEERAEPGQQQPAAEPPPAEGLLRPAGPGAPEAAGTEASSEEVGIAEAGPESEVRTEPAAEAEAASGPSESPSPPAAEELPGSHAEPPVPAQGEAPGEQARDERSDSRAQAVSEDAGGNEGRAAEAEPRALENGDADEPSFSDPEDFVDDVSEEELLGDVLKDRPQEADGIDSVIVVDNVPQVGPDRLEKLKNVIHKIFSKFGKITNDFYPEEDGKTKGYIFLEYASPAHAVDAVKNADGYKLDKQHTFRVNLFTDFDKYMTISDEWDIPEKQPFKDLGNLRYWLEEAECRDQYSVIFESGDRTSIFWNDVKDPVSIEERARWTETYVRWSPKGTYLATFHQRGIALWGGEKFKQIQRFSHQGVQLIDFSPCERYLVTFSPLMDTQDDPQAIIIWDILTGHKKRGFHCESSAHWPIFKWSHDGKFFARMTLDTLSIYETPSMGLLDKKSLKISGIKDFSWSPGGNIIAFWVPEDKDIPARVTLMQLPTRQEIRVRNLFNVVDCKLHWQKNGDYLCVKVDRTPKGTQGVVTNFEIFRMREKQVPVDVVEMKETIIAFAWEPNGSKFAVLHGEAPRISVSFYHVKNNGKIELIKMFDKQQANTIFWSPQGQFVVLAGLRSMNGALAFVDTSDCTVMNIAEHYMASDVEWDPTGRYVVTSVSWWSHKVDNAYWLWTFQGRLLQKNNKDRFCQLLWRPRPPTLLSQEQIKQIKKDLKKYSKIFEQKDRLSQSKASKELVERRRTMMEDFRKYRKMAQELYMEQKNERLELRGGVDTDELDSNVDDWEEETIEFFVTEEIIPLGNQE

Columns and labels:
3XFLAG-OFD1 (human) = molecular target: T1, 3XFLAG-OFD1 (human) (UniProt O75665); experiment: co-IP; HEK293 lysates with 3XFLAG-OFD1 wild type or mutated in the eIF4E binding site (Y282S, Y282D); eIF4E detected by WB, eIF4E/OFD1 ratio quantified
T1 sequence: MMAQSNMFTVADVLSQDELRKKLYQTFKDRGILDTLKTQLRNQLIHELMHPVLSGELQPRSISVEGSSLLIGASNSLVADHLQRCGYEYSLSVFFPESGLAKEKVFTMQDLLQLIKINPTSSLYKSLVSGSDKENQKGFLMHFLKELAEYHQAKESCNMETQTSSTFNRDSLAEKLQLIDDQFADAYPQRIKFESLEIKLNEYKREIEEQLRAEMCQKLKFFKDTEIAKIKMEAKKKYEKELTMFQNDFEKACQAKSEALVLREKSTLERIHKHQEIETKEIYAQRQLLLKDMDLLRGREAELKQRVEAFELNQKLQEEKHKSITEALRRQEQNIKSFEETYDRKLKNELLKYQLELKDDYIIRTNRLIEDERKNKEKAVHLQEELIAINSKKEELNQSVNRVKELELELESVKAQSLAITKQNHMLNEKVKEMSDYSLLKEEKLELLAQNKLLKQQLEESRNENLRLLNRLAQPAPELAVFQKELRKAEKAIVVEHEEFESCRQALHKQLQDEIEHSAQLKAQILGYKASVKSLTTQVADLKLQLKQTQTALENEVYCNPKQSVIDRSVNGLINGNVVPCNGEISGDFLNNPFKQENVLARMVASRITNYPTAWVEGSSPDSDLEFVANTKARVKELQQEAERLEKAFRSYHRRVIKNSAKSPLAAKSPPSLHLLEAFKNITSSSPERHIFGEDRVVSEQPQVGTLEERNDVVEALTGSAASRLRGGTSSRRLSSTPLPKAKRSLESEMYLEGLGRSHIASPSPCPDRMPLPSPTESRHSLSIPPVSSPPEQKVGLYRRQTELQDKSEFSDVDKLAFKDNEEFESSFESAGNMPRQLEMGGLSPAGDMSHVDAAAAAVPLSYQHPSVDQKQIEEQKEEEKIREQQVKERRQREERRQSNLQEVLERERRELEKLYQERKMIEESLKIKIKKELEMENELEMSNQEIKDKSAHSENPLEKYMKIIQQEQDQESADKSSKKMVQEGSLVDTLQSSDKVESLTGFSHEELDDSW

[1] = molecular target: T2, OFD1 (human (endogenous in HEK293)) (UniProt O75665); experiment: co-IP; endogenous proteins in total lysates of HEK293 cells; IgG as control; Co-IP buffer 50 mM Tris-HCl, 1 mM EDTA, 10 mM MgCl2, 5 mM EGTA, 0.5% Triton X-100, pH 7.28; also in OFD1-silenced and Bicc1-silenced cells
T2 sequence: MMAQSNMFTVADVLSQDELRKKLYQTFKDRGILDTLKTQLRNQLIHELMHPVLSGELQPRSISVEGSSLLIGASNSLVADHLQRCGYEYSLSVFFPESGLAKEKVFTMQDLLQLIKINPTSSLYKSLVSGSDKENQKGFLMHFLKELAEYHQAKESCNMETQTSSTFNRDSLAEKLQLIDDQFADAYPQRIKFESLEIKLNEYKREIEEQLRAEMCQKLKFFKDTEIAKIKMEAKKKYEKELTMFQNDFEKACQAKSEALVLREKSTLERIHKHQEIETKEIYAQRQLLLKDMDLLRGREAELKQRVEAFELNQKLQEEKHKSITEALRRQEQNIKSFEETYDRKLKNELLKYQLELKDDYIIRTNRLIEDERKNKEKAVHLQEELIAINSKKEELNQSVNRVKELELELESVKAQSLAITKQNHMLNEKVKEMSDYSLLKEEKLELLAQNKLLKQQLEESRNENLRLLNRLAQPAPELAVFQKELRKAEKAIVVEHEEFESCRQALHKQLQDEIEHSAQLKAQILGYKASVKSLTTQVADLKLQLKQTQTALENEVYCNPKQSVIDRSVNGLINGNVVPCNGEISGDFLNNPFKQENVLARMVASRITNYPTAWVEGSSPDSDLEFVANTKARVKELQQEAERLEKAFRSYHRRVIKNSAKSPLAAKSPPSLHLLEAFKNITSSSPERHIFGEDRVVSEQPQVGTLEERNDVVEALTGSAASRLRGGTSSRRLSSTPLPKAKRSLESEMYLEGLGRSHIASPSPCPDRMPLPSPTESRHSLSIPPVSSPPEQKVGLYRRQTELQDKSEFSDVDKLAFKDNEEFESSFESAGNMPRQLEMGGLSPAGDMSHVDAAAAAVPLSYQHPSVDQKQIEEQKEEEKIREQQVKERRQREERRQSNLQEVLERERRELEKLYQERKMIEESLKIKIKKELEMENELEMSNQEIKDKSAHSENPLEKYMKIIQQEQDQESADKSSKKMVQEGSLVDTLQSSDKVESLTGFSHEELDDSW

[2] = molecular target: eIF4E (human (endogenous in HEK293)) (UniProt P06730); experiment: as above
[3] = molecular target: eIF3G (human (endogenous in HEK293)) (UniProt O75821); experiment: as above
[4] = molecular target: eIF3B (murine) (mouse (endogenous in kidney)) (UniProt Q8JZQ9); experiment: co-IP; polysomal fractions extracted from wild-type mouse kidneys (P8)
[5] = molecular target: eIF3B (human (endogenous in HEK293)) (UniProt P55884); experiment: co-IP; HEK293 cells overexpressing Bicc1, control and OFD1-silenced cells

Molecule: eIF4E (from UniProt P06730 1-217)
- binding (3XFLAG-OFD1 (human)): binds
- binding [1]: binds

Molecule: eIF3G (from UniProt O75821 1-320)
- binding [1]: binds

Molecule: eIF3B (from UniProt P55884 1-814)
- binding [2]: binds

B1: OFD1 (protein, UniProt O75665-1 1-1012)
chain: MMAQSNMFTVADVLSQDELRKKLYQTFKDRGILDTLKTQLRNQLIHELMHPVLSGELQPRSISVEGSSLLIGASNSLVADHLQRCGYEYSLSVFFPESGLAKEKVFTMQDLLQLIKINPTSSLYKSLVSGSDKENQKGFLMHFLKELAEYHQAKESCNMETQTSSTFNRDSLAEKLQLIDDQFADAYPQRIKFESLEIKLNEYKREIEEQLRAEMCQKLKFFKDTEIAKIKMEAKKKYEKELTMFQNDFEKACQAKSEALVLREKSTLERIHKHQEIETKEIYAQRQLLLKDMDLLRGREAELKQRVEAFELNQKLQEEKHKSITEALRRQEQNIKSFEETYDRKLKNELLKYQLELKDDYIIRTNRLIEDERKNKEKAVHLQEELIAINSKKEELNQSVNRVKELELELESVKAQSLAITKQNHMLNEKVKEMSDYSLLKEEKLELLAQNKLLKQQLEESRNENLRLLNRLAQPAPELAVFQKELRKAEKAIVVEHEEFESCRQALHKQLQDEIEHSAQLKAQILGYKASVKSLTTQVADLKLQLKQTQTALENEVYCNPKQSVIDRSVNGLINGNVVPCNGEISGDFLNNPFKQENVLARMVASRITNYPTAWVEGSSPDSDLEFVANTKARVKELQQEAERLEKAFRSYHRRVIKNSAKSPLAAKSPPSLHLLEAFKNITSSSPERHIFGEDRVVSEQPQVGTLEERNDVVEALTGSAASRLRGGTSSRRLSSTPLPKAKRSLESEMYLEGLGRSHIASPSPCPDRMPLPSPTESRHSLSIPPVSSPPEQKVGLYRRQTELQDKSEFSDVDKLAFKDNEEFESSFESAGNMPRQLEMGGLSPAGDMSHVDAAAAAVPLSYQHPSVDQKQIEEQKEEEKIREQQVKERRQREERRQSNLQEVLERERRELEKLYQERKMIEESLKIKIKKELEMENELEMSNQEIKDKSAHSENPLEKYMKIIQQEQDQESADKSSKKMVQEGSLVDTLQSSDKVESLTGFSHEELDDSW
- binding [3]: binds

Continued, values first:

- binding [4]: binds
B2: Ofd1 (murine) (protein, UniProt Q80Z25 1-1017)
chain: MAQSNMPHKSDVLSQDELRKKLYQTFKDRGVLDTLQTQLRNQLIHELMHPVLSGEVKPPSISVEGSALLIGASNSLVADHLQRCGYEYSLSVFFPESGLAKEKIFTMQDLLQLIRINPSSSLYKSLISGFDKENKKGFLMSFLKELAEYYQAKESCDAETQTSTTFPSQVSLAEKFQLIDAQFADGFPHRSKLESLETKLNEYKKEVQHQLQVEMCHKLKYFREAEITKVKMEERRKYEKELAEFQNEFERTCQAKNEALISQEKNSLERIKKHREMESKEIYAQRQLLLNDIALLRGREAELKERIETFELTQKLQEEKIKSEAEALERREQNLKNIEDTYDQKLKTELLKYQLELKDDYITRTNKLLEEERKNKEKTIHLQEELTVINSKKEELSKSVKHMKEVELELESVKAQFLAISKQNHLLNEKVREMSDYSQLKEEKVELQAQNKLLKLQLEETRNENLRLLDRITQPPPELVIFQKELQKTEKAMELEHKDFETHRQALEKQLQSEIENSAQLRTQIAEYDASVKRLTVQVAELKSQLKQTQIALENEVYRNPKHSLIHSLSGLLLSGKMAPHSEDKSGDFLNVPLEQNKVIAGAVMSRVPPYVNTATEASSPESDFEFIASSTKAKVRELEQEAERLEKAFRTYYQRATQNPSTSPQPAKSPPSVNSVAALRSIASSSMDRPVSAEDRVVSEQPLGDMLKEEMSDMSKAFMGSVVSRPRRTSSSTRLSSTPHPKSRRSLDNEMYLEGLGRLHMTSSSPLLDRVSASPAASPSPCPERTAQASPVPSRHSFSGLPEQNACLYQRQTETQDKSELSNVDKQSLKDEKFEPPFRWNKTEQFEAEGLHPAGDMPGIDFAVATQSSRLISYDYPSAVQSQTGEQDEQELWELHMKERRQREEQRHNERQEALERERRELGKLEQERRMIEESLKMEMEEELEKSVQDQKDKSAHCENTLEKYMKIIQQRQEESNADKSSKKSGKECSLVDMMMPSDKDESSPGFSHEEPDDMW

- binding [5]: binds
B3: FLAG-Bicc1 (protein, UniProt Q99MQ1 1-977)
chain: MASQSEPGYLAAAQSDPGSNSERSTDSPVAGSEDDLVAAAPLLHSPEWSEERFRVDRKKLEAMLQAAAEGKGRSGEDFFQKIMEETNTQIAWPSKLKIGAKSKKDPHIKVSGKKEDVKEAKEMIMSVLDTKSNRVTLKMDVSHTEHSHVIGKGGNNIKKVMEDTGCHIHFPDSNRNNQAEKSNQVSIAGQPAGVESARARIRELLPLVLMFELPIAGILQPVPDPNTPSIQHISQTYSVSVSFKQRSRMYGATVTVRGSQNNTNAVKEGTAMLLEHLAGSLASAIPVSTQLDIAAQHHLFMMGRNGSNVKHIMQRTGAQIHFPDPSNPQKKSTVYLQGTIESVCLARQYLMGCLPLVLMFDMKEDIEVDPQVIAQLMEQLDVFISIKPKPKQPSKSVIVKSVERNALNMYEARKCLLGLESSGVSIATSLSPASCPAGLACPSLDILASAGLGLTGLGLLGPTTLSLNTSATPNSLLNALNTSVSPLQSSSSGTPSPTLWAPPIANTASATGFSTIPHLMLPSTAQATLTNILLSGVPTYGHTAPSPPPGLTPVDVHINSMQTEGKNISASINGHVQPANMKYGPLSTSSLGEKVLSSNHGDPSMQTAGPEQASPKSNSVEGCNDAFVEVGMPRSPSHSGNAGDLKQMLGASKVSCAKRQTVELLQGTKNSHLHGTDRLLSDPELSATESPLADKKAPGSERAAERAAAAQQKSERARLASQPTYVHMQAFDYEQKKLLATKAMLKKPVVTEVRTPTNTWSGLGFSKSMPAETIKELRRANHVSYKPTMTTAYEGSSLSLSRSSSREHLASGSESDNWRDRNGIGPMGHSEFSAPIGSPKRKQNKSREHYLSSSNYMDCISSLTGSNGCNLNSCFKGSDLPELFSKLGLGKYTDVFQQQEIDLQTFLTLTDQDLKELGITTFGARRKMLLAISELSKNRRKLFEPPNASCTSFLEGGASGRLPRQYHSDIASVSGRW
